PubChem BioAssay AID504808 | Drosophila RNAi Screening Center | 2011
The deposit covers about 21,000 reagents; this is an unselected part of those with a known target gene and a result. Of all reagents, 18 (0.084%) got an active call. 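Raw counts without plate normalisation, one of two replicates; the ratio scores behind the calls were not deposited.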 A plus sign joins genes that one reagent is predicted to hit. Not given: the amount of reagent, the time to read-out.

Purpose: 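Chromatin factors that keep E2F targets switched off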 (primary screen)
System: Drosophila S2 cells
Reagents: long dsRNA against Drosophila genes
Measurement: 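Firefly luciferase driven by E2F sites, normalised to Renilla luciferase on the same minimal promoter, measured by plate reader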
Direction: E2F firefly: higher = more E2F reporter activity; Renilla normaliser: higher = more normaliser reporter signal
Rule for the call: 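a knock-down counted as active when the firefly/Renilla E2F signal rose above 50%, a threshold chosen arbitrarily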

Oseg4 [DRSC08548]
- E2F firefly, rep 1: 75627
- Renilla normaliser, rep 1: 3911
- Call: inactive

CG42780 [DRSC17514]
- E2F firefly, rep 1: 81429
- Renilla normaliser, rep 1: 2301
- Call: inactive

CG14070 [DRSC02373]
- E2F firefly, rep 1: 1.50e5
- Renilla normaliser, rep 1: 5140
- Call: inactive

TwdlY [DRSC19153]
- E2F firefly, rep 1: 83662
- Renilla normaliser, rep 1: 2795
- Call: inactive

Peritrophin-15a [DRSC02636]
- E2F firefly, rep 1: 1.43e5
- Renilla normaliser, rep 1: 4471
- Call: inactive

CG3704 [DRSC18174]
- E2F firefly, rep 1: 53682
- Renilla normaliser, rep 1: 4079
- Call: inactive

CG3704 [DRSC18645]
- E2F firefly, rep 1: 41738
- Renilla normaliser, rep 1: 3455
- Call: inactive

Dip-B [DRSC16466]
- E2F firefly, rep 1: 69263
- Renilla normaliser, rep 1: 3134
- Call: inactive

CR42745 (retired record) [DRSC13756]
- E2F firefly, rep 1: 89784
- Renilla normaliser, rep 1: 2182
- Call: inactive

Cad74A [DRSC10636]
- E2F firefly, rep 1: 1.77e5
- Renilla normaliser, rep 1: 8937
- Call: inactive

CG42564 [DRSC12518]
- E2F firefly, rep 1: 1.42e5
- Renilla normaliser, rep 1: 6710
- Call: inactive

Ptp52F [DRSC06717]
- E2F firefly, rep 1: 1.52e5
- Renilla normaliser, rep 1: 4553
- Call: inactive

Cul3 [DRSC03537]
- E2F firefly, rep 1: 73222
- Renilla normaliser, rep 1: 3768
- Call: inactive

alphaCOP [DRSC08706]
- E2F firefly, rep 1: 57176
- Renilla normaliser, rep 1: 4158
- Call: inactive

CG18563 [DRSC02676]
- E2F firefly, rep 1: 1.15e5
- Renilla normaliser, rep 1: 4259
- Call: inactive

Continued; the last 3 above are carried over.
Cul3 [DRSC03537]
- E2F firefly, rep 1: 73222
- Renilla normaliser, rep 1: 3768
- Call: inactive

alphaCOP [DRSC08706]
- E2F firefly, rep 1: 57176
- Renilla normaliser, rep 1: 4158
- Call: inactive

CG18563 [DRSC02676]
- E2F firefly, rep 1: 1.15e5
- Renilla normaliser, rep 1: 4259
- Call: inactive

CG14720 [DRSC14942]
- E2F firefly, rep 1: 1.51e5
- Renilla normaliser, rep 1: 6611
- Call: inactive

CG13625 [DRSC14627]
- E2F firefly, rep 1: 65822
- Renilla normaliser, rep 1: 3537
- Call: inactive

mago [DRSC04703]
- E2F firefly, rep 1: 99465
- Renilla normaliser, rep 1: 3984
- Call: inactive

ERp44 [DRSC20215]
- E2F firefly, rep 1: 8398
- Renilla normaliser, rep 1: 856
- Call: inactive

CG15784 [DRSC18090]
- E2F firefly, rep 1: 1.12e5
- Renilla normaliser, rep 1: 8092
- Call: inactive

Josd [DRSC18323]
- E2F firefly, rep 1: 1.05e5
- Renilla normaliser, rep 1: 4918
- Call: inactive

HP1e [DRSC16379]
- E2F firefly, rep 1: 1.35e5
- Renilla normaliser, rep 1: 5828
- Call: inactive

CG3176 + CR18166 + CG32817 [DRSC17271]
- E2F firefly, rep 1: 79591
- Renilla normaliser, rep 1: 2595
- Call: inactive

CG3176 + CR18166 + CG32817 [DRSC17282]
- E2F firefly, rep 1: 74103
- Renilla normaliser, rep 1: 2338
- Call: inactive

CG3176 + CR18166 + CG32817 [DRSC18288]
- E2F firefly, rep 1: 1855
- Renilla normaliser, rep 1: 844
- Call: inactive

Fur2 [DRSC19817]
- E2F firefly, rep 1: 2.40e5
- Renilla normaliser, rep 1: 7446
- Call: inactive

CG16974 [DRSC02551]
- E2F firefly, rep 1: 90992
- Renilla normaliser, rep 1: 3520
- Call: inactive

sad [DRSC16630]
- E2F firefly, rep 1: 1.39e5
- Renilla normaliser, rep 1: 6462
- Call: inactive

wapl [DRSC18851]
- E2F firefly, rep 1: 1722
- Renilla normaliser, rep 1: 808
- Call: inactive

Lcp3 [DRSC07457]
- E2F firefly, rep 1: 1.39e5
- Renilla normaliser, rep 1: 4673
- Call: inactive

CG14439 [DRSC17931]
- E2F firefly, rep 1: 1.09e5
- Renilla normaliser, rep 1: 6030
- Call: inactive

CG31681 [DRSC00107]
- E2F firefly, rep 1: 1.29e5
- Renilla normaliser, rep 1: 5308
- Call: inactive

sicily [DRSC19704]
- E2F firefly, rep 1: 1.27e5
- Renilla normaliser, rep 1: 6172
- Call: inactive

Cda4 [DRSC20623]
- E2F firefly, rep 1: 1.34e5
- Renilla normaliser, rep 1: 6096
- Call: inactive

Cda4 [DRSC20641]
- E2F firefly, rep 1: 1.31e5
- Renilla normaliser, rep 1: 5990
- Call: inactive

Cda4 [DRSC20642]
- E2F firefly, rep 1: 1.32e5
- Renilla normaliser, rep 1: 7022
- Call: inactive
